Reference: patent publication US20100269180A1
Results are given in words; binding and its absence hold for the method and conditions named. Some binding calls cover weakened binding; strength is not graded here.

Key:
[1] = molecular target: T1, T-cadherin (endogenous, mouse, on cardiomyocyte surfaces) (mouse) (UniProt Q9WTR5); assay: immunofluorescence of heart sections; adiponectin surface staining fell to background in T-cadherin null hearts
T1 sequence (GPI anchor, looked up): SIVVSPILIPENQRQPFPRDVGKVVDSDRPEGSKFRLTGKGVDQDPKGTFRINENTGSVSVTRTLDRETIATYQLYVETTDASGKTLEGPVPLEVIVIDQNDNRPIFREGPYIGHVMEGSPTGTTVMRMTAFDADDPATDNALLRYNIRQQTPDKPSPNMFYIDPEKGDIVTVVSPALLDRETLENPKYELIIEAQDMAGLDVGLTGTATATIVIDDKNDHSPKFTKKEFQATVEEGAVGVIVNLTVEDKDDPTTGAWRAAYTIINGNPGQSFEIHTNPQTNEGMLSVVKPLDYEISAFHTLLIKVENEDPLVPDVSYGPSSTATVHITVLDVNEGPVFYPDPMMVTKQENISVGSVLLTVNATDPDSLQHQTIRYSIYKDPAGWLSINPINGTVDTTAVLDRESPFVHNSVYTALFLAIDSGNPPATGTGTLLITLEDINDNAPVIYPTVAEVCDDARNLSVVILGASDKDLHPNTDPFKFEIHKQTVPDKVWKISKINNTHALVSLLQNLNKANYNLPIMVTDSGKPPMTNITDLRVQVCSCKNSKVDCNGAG

[2] = molecular target: T1, T-cadherin (endogenous, mouse, on cardiomyocyte surfaces) (mouse); assay: immunostaining of wild type, T-cadherin null and adiponectin null hearts (FIG. 2A legend)
[3] = molecular target: T1, T-cadherin (endogenous, mouse, on cardiomyocyte surfaces) (mouse); assay: tissue staining together with serum adiponectin ELISA in wild type and T-cadherin null mice

binding [1]: binds
binding [2]: binds
binding [3]: binds
B1: adiponectin (endogenous, mouse) (ligand, UniProt Q60994 18-247, looked up)
chain: EDDVTTTEELAPALVPPPKGTCAGWMAGIPGHPGHNGTPGRDGRDGTPGEKGEKGDAGLLGPKGETGDVGMTGAEGPRGFPGTPGRKGEPGEAAYVYRSAFSVGLETRVTVPNVPIRFTKIFYNQQNHYDGSTGKFYCNIPGLYYFSYHITVYMKDVKVSLFKKDKAVLFTYDQYQEKNVDQASGSVLLHLEVGDQVWLQVYGDGDHNGLYADNVNDSTFTGFLLYHDTN
